These are yes or no findings as the source states them, for the method shown. In cells and extracts the contact can be indirect. Some entries that bind do so weakly or less than the wild type.

Sequences of proteins named here, by UniProt entry; tags and fusion partners are left off. Residues count along the entry.
UniProt P13595, 20-1115: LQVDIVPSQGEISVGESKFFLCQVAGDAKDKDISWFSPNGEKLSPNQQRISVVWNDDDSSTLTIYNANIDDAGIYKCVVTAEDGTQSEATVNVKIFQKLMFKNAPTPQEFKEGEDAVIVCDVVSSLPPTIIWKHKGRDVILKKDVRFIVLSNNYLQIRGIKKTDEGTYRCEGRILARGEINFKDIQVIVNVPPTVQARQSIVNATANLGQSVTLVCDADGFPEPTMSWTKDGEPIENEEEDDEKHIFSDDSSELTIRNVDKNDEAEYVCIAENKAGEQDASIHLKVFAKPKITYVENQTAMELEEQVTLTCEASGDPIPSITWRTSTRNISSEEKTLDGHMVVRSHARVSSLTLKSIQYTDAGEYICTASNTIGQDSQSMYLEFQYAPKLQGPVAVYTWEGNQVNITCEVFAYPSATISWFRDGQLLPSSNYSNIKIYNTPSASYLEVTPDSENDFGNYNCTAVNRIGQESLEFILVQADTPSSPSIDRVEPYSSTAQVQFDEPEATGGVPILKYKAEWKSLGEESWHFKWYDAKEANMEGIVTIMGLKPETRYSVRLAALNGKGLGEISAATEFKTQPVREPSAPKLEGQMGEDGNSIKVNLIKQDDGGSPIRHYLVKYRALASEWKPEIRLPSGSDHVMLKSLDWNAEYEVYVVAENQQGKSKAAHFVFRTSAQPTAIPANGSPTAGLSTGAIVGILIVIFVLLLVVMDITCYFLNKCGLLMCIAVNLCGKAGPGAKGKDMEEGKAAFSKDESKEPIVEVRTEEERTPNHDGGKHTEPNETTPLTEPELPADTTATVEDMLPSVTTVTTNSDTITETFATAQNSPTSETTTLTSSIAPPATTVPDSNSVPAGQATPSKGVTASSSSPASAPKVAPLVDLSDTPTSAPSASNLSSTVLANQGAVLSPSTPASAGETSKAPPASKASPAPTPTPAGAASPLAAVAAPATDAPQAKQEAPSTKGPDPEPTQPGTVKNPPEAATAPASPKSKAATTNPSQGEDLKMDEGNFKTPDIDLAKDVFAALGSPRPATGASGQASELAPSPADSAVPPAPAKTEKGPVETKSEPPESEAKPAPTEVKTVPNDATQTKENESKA

The values below come from paper doi:10.1101/2023.08.31.555658.

The assay addresses PrP^C, the cellular prion protein, of NBH-treated dC2C12 cultures (mouse (endogenous in dC2C12)) (UniProt P04925). As to the kind of experiment: cross-linking.

Turning to “neural cell adhesion molecule (NCAM) (from UniProt P13595 20-1115)”, the binding entry is “binds”.
